Experimental data as given in PubChem BioAssay AID651660 (Broad Institute, 2012).
Values joined by “and” are separate entries in the source; they are usually repeats but may differ in a detail not shown here. Equal values may be shown once. About 15 (0.8%) of roughly 1,900 compounds were called active.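 Rule for the calls: active = every replicate shows at least 50% inhibition; inconclusive = mean inhibition at least 50% but some replicate below; inactive = the rest.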 This is one part of the list. Residues, ends and D or L forms follow the SMILES beside them.

The chains behind the UniProt entries cited, without tags or fusion partners. Where a name states a change or a piece, a line headed by the entry shows the natural chain unless it says otherwise.
UniProt P43351: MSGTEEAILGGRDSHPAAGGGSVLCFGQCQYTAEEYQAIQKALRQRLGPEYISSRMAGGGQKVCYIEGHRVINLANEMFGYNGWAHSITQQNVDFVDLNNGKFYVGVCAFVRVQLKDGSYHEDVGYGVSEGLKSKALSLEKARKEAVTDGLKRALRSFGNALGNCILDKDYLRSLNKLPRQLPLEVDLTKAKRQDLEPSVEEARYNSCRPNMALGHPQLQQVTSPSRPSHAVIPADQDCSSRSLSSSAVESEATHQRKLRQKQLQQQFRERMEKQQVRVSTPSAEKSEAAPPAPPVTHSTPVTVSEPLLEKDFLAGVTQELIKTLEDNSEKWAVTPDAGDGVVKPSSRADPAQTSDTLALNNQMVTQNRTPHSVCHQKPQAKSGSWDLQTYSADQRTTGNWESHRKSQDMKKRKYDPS

Each compound was assayed against DNA repair protein RAD52 homolog (Homo sapiens) (UniProt P43351) (assay: inhibition of RAD52-mediated strand annealing – biochemical, FRET, single point, primary screen (AID 651660;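 note: 0% = median of neutral control wells and 100% = median of positive control wells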)). Settings: Recombinant RAD52 ssDNA annealing, FRET fluorescence, 30 min; at 18.7 µM; hits give high values.

| Compound | inhibition |
| --- | --- |
| Clc1ccc(C2NCCc3[nH]cnc32)cc1 (stereo unspecified) | inactive: 16.7% |
| COP(=S)(OC)SCN1C(=O)c2ccccc2C1=O | inactive: 5.59% |
| COC1=CC(=O)OC(/C=C/c2ccccc2)C1 (stereo unspecified) | inactive: 2.33% |
| C[C@H]1CCC[C@H](O)CCCCCc2cc(O)cc(O)c2C(=O)O1 | inactive: -0.964% |
| CCN1CC2(COC(=O)c3ccccc3N)CCC(OC)C34C5CC6C(OC)CC(O)(C5C6OC)C(O)(C(OC)C23)C14 (stereo unspecified) | inactive: 5.95% |
| COc1ccc(OC)c([C@@H](O)[C@H](C)NC(C)(C)C)c1 | inactive: -7.88% |
| CC(C)NC(C)C(=O)c1ccc2ccccc2c1 (stereo unspecified) | inactive: 5.99% |
| COc1ccc2c3c([nH]c2c1)C(C)=NCC3 | inactive: 9.54% |
| Fc1ccc(C(OCCN2CCCC2)c2ccc(Br)cc2)cc1 (stereo unspecified) | inactive: 9.47% |
| [N-]=[N+]=CC(=O)OC[C@H](N)C(=O)O | inactive: -2.26% |
| O=S(=O)(c1ccc(F)cc1)N1CCCCC1c1cccnc1 (stereo unspecified) | inactive: 4.17% |
| CC(=O)C1=C(C)OC(N)=C(C(=O)OC(C)C)C12C(=O)Nc1ccccc12 (stereo unspecified) | inactive: 2.27% |
| C[N+]1(C)CCN(c2ccccc2)CC1 | inactive: 0.463% |
| CC(C)CC12CN3CCN(CC(C3)C1O)C2 (stereo unspecified) | inactive: -12.2% |
| CC12CCC3C(CC=C4CC5(CCC43C)OCCO5)C1CCC2=O (stereo unspecified) | inactive: -3.98% |
| CC(C)[C@@]1(NC(=O)[C@@H]2C[C@@H]3c4cccc5[nH]cc(c45)C[C@H]3N(C)C2)O[C@@]2(O)[C@@H]3CCCN3C(=O)[C@H](Cc3ccccc3)N2C1=O | inactive: -26.7% |
| CCOc1ccc(C2C(C#N)=C(N)Oc3c2c(=O)oc2ccccc32)cc1 (stereo unspecified) | inactive: -2.8% |
| COc1ccc(C(=O)N2CCCC2=O)cc1 | inactive: 0.401% |
| O=C(O)CCCc1ccc(N(CCCl)CCCl)cc1 | inactive: -14.6% |
| C[N+]1(C)CCOC(O)(c2ccc(-c3ccc(C4(O)C[N+](C)(C)CCO4)cc3)cc2)C1 (stereo unspecified) | active: 61.8% |
| Nc1ccncc1 | inactive: 0.701% |
| C[C@]12CCC(=O)C=C1CC[C@@H]1[C@@H]2C(=O)C[C@]2(C)C(=O)CC[C@@H]12 | inactive: -2.13% |
| NNC(=O)c1ccc(Cl)cc1 | inactive: -6.99% |

| Compound | inhibition |
| --- | --- |
| COc1cc2c3cc1Oc1cc(ccc1O)C[C@@H]1c4c(cc(OC)c(O)c4Oc4ccc(cc4)C[C@H]3N(C)CC2)CCN1C | active: 77.6% |
| CCNC(=S)N(C)CCc1cc2c(c(OC)c1C=C1C(=O)N(C)C(=O)N(C)C1=O)OCO2 | inactive: -15% |
| Cc1cc(Cl)ccc1OCC(=O)O | inactive: -15.5% |
| CN1C(=O)N(C)C(=O)C2(Cc3ccccc3N3CCOCC32)C1=O (stereo unspecified) | inactive: -0.534% |
| CC(CCc1ccccc1)NC(C)C(O)c1ccc(O)cc1 (stereo unspecified) | inactive: 4.36% |
| CC(C)C[C@H](NC(=O)[C@@H]1CCCN1C(=O)[C@@H](N)Cc1ccc(O)cc1)C(=O)NCC(N)=O (H-YPLG-NH2) | inactive: 5.56% |
| C[C@H](O)[C@H]1CC[C@H]2[C@@H]3CCC4=CC(=O)CC[C@]4(C)[C@H]3CC[C@]12C | inactive: 5.86% |
| O=C1CN=C(c2ccccc2F)c2cc(Cl)ccc2N1 | inactive: 2.44% |
| Clc1ccc(CSC(Cn2ccnc2)c2ccc(Cl)cc2Cl)cc1 (stereo unspecified) | inactive: 49.4% |
| CCCC[N+]1(C)[C@@H]2CC(OC(=O)[C@H](CO)c3ccccc3)C[C@H]1[C@@H]1O[C@@H]12 (stereo partly specified) | inactive: 2.96% |
| CC(=O)OC1C2CCC1C(N1CCCC1)CC2 (stereo unspecified) | inactive: -8.19% |
| C[C@]12CC[C@@H](O)C[C@@H]1CC[C@@H]1[C@@H]2CC[C@]2(C)[C@@H](O)CC[C@@H]12 | inactive: -0.831% |
| OC1CCCCC1N1CCC(c2ccccc2)CC1 (stereo unspecified) | inactive: -36.8% |
| COc1ccc2c(c1)CC1(CN2C)C(=O)NC(=O)N(CCc2ccccc2)C1=O (stereo unspecified) | inactive: -27% |
| C[C@H]1CCCC(=O)CCC/C=C/c2cc(O)cc(O)c2C(=O)O1 | inactive: 0.365% |
| Cc1ccsc1C(=O)C1CCCN(Cc2cc3ccccc3o2)C1 (stereo unspecified) | inactive: -1.76% |
| Cc1ccc(-n2c(C)cc(/C=C3/C(=O)NC(=O)N(C)C3=O)c2C)cc1 | inactive: -22% |
| CC(Cc1ccccc1)NCC(=O)Nc1cc(N(C)C)nc2ccccc12 (stereo unspecified) | inactive: 19% |
| CC[C@@H]1C(=O)OC[C@@H]1Cc1cncn1C | inactive: -7.49% and inactive: -2.25% |
| C#CCN(C)C(C)Cc1ccccc1 (stereo unspecified) | inactive: 4.83% |
| O=c1[nH]c2ccccc2n1CCCN1CCC(n2c(=O)[nH]c3cc(Cl)ccc32)CC1 | inactive: 13.1% |
| C[C@@H]1O[C@@H](O[C@H]2C[C@@H](O)[C@]3(CO)[C@H]4[C@H](O)C[C@]5(C)[C@@H](C6COC(=O)C6)CC[C@]5(O)[C@@H]4CC[C@]3(O)C2)[C@H](O)[C@H](O)[C@H]1O (stereo partly specified) | inactive: -0.228% |
| CC(C)[N+](C)(CCC(C(N)=O)(c1ccccc1)c1ccccc1)C(C)C | inactive: -5.25% |

| Compound | inhibition |
| --- | --- |
| C#C[C@]1(O)CC[C@H]2[C@@H]3CCC4=CC(=O)CC[C@]4(C)[C@H]3CC[C@@]21C | inactive: -2.41% |
| O=C1CCCC2=C1C(c1cccnc1)Nc1ccccc1N2 (stereo unspecified) | inactive: -8.7% |
| CC12CC[C@H]3[C@@H](CCC4(O)C[C@H](O)CCC34/C=N/NC(=O)Cc3ccccc3)C1(O)CCC2C1=CC(=O)OC1 (stereo partly specified) | inactive: 8.4% |
| CC12CN3CC(C)(CN(C1)C31CCOCC1)C2=O | inactive: -24.6% |
| C[C@]12CC[C@@H](O)C[C@@H]1CC[C@@H]1[C@@H]2CC[C@]2(C)C(=O)CC[C@@H]12 | inactive: 2.22% |
| CC[C@]12C=CCN3CCC4(c5cc(Br)c(OC)cc5N(C)C4[C@@](O)(C(=O)OC)[C@@H]1OC(C)=O)C32 (stereo partly specified) | inactive: 6.35% |
| CC12CCC3C(CC=C4CC(O)CCC43C)C1C/C(=C\c1cccc(F)c1)C2=O (stereo unspecified) | inactive: -7.99% |
| CCC1(c2ccccc2)C(=O)N(COC)C(=O)N(COC)C1=O | inactive: -5.47% |
| O=c1cccc2n1C[C@H]1C[C@@H]2CN2CCCC[C@@H]12 | inactive: 2.56% |
| NCC1(c2ccc3c(c2)OCCO3)CCCC1 | inactive: -3.46% |
| CN1C(=O)CN=C(c2ccc(Cl)cc2)c2cc(Cl)ccc21 | inactive: 1.83% |
| O=C1CC[C@@]2(O)[C@H]3Cc4ccc(O)c5c4[C@@]2(CCN3CC2CC2)[C@H]1O5 | inactive: -7.66% |
| C[N+]1(C)[C@@H]2CC(OC(=O)[C@H](CO)c3ccccc3)C[C@H]1[C@@H]1O[C@@H]12 (stereo partly specified) | inactive: -3.35% and inactive: -6.65% |
| S=C1NCCN1 | inactive: -9.58% |
| C[N+]1(C)C2CCC1CC(OC(=O)C(CO)c1ccccc1)C2 (stereo unspecified) | inactive: -3.1% |
| CC(C)(C)C(O)C(Oc1ccc(Cl)cc1)n1cncn1 (stereo unspecified) | inactive: -119% |
| C[C@H]1CC[C@@]2(C)[C@@H](CC[C@@H]3[C@@H]2CC[C@]2(C)[C@@H](O)CC[C@@H]32)C1 | inactive: 6.01% |
| NCC(O)c1ccc(O)cc1 (stereo unspecified) | inactive: -1.23% |
| c1ccc(Cn2ccnc2)cc1 | inactive: 0.152% |
| O=C1NCCN2CCCC12 (stereo unspecified) | inactive: -1.15% |
| CN1C[C@H](CNC(=O)OCc2ccccc2)C[C@@H]2c3cccc4c3c(cn4C)C[C@H]21 | inactive: -58.1% |
| OCc1cnc[nH]1 | inactive: -0.84% |
| Clc1ccc(COC(Cn2ccnc2)c2ccc(Cl)cc2Cl)cc1 (stereo unspecified) | inactive: 31.4% |

Entries shown so far with an NH in an aromatic ring (five):

| Compound | inhibition |
| --- | --- |
| Clc1ccc(C2NCCc3[nH]cnc32)cc1 (stereo unspecified) | inactive: 16.7% |
| COc1ccc2c3c([nH]c2c1)C(C)=NCC3 | inactive: 9.54% |
| CC(C)[C@@]1(NC(=O)[C@@H]2C[C@@H]3c4cccc5[nH]cc(c45)C[C@H]3N(C)C2)O[C@@]2(O)[C@@H]3CCCN3C(=O)[C@H](Cc3ccccc3)N2C1=O | inactive: -26.7% |
| O=c1[nH]c2ccccc2n1CCCN1CCC(n2c(=O)[nH]c3cc(Cl)ccc32)CC1 | inactive: 13.1% |
| OCc1cnc[nH]1 | inactive: -0.84% |

Going on with the list.

| Compound | inhibition |
| --- | --- |
| C[C@H]1CCCC(=O)CCCCCc2cc(O)cc(O)c2C(=O)O1 | inactive: 5.47% |
| c1ccc2c(c1)OCC(C1=NCCN1)O2 (stereo unspecified) | inactive: -11.4% |
| CC[N+]1(C)CCCC(OC(=O)C(O)(c2ccccc2)c2ccccc2)C1 (stereo unspecified) | inactive: 5.8% |
| CCN(CC)C(=O)N[C@H]1C[C@@H]2c3cccc4[nH]cc(c34)C[C@H]2N(C)C1 | inactive: -268% |
| CC12CN3CC(c4ccccc4)(CN(C1)C31CCCCC1)C2=O | inactive: 0.38% |
| CCn1c(O)c(C(=O)CC2NCCc3ccccc32)c(=O)n(CC)c1=S (stereo unspecified) | inactive: -169% |
| C[N+]1(C)CCc2cc3c(cc2[C@H]1[C@@H]1OC(=O)c2c1ccc1c2OCO1)OCO3 | inactive: 1.41% and inactive: -10.8% |
| C=CC1CN2CCC1CC2[C@@H](OC(=O)c1ccc(OC)cc1)c1ccnc2ccccc12 (stereo partly specified) | inactive: 9.32% |
| NCCc1c[nH]c2ccc(F)cc12 | inactive: 0.119% |
| Cc1ccc(/C=C2/C(=O)NC(=O)N(C)C2=O)cc1 | inactive: -8.8% |
| CCOC(=O)c1cncn1C(C)c1ccccc1 (stereo unspecified) | inactive: -7.55% |
| c1cnc2c(c1)ccc1ncccc12 | inactive: -3.46% |
| O=c1c2ccccc2nc(/C=C/c2ccc3c(c2)OCO3)n1-c1ccccc1 | inactive: -39.6% |
| O=C(CCCN1CCC2(CC1)C(=O)NCN2c1ccccc1)c1ccc(F)cc1 | inactive: -2.24% |
| C[C@]12CCC(=O)C=C1CC[C@@H]1[C@@H]2CC[C@]2(C)C(=O)CC[C@@H]12 | inactive: -2.86% |
| OC(c1ccccc1)(c1ccccc1)C1CCNCC1 | inactive: -3.89% |
| COc1ccc(-c2nc3ccccc3c(=O)o2)cc1 | inactive: -14.9% |
| CCCC(C)(COC(N)=O)COC(=O)NC(C)C (stereo unspecified) | inactive: 1.67% |
| CN1[C@@H]2CC[C@H]1CC(OC(=O)C1C=Nc3ccccc31)C2 (stereo partly specified) | inactive: 4.33% |
| O=C1CSC2N1CCNC21CCCCC1 (stereo unspecified) | inactive: 0.516% |
| Clc1ccc(COC(Cn2ccnc2)c2ccc(Cl)cc2Cl)c(Cl)c1 (stereo unspecified) | inactive: 47.6% |
| COc1cccc(Oc2c(C)oc3cc(OC(=O)N(C)C)ccc3c2=O)c1 | inactive: 1.29% |
